Data taken from patent US9113631B2, “1,3-diaryl-substituted heterocyclic pesticides” (E I DU PONT DE NEMOURS AND COMPANY, priority 2011, dated 2015).
Some of these results come from one statement about several compounds together. For at least one compound, name, drawing or mass did not settle the structure.

Key:
Format in all cases: in vivo
[1] = system: diamondback moth (Plutella xylostella); assay: Test A: control of diamondback moth on radish plant, foliar spray; details: neonate larvae on radish plant, 6 days, 25° C., visually assessed
[2] = system: fall armyworm (Spodoptera frugiperda); assay: Test B: control of fall armyworm on maize plant, foliar spray; details: 1-day-old larvae on maize plant, 25° C., visually rated
[3] = system: potato leafhopper (Empoasca fabae); assay: Test F: control of potato leafhopper on Soleil bean plant, contact and/or systemic; details: adults on Soleil bean plant, 6 days, 24° C.

Structure (SMILES) | control efficacy, very good to excellent: feeding damage (40% or less feeding damage and/or 100% mortality) ([1]; sprayed at 50 ppm) [%] | control efficacy, very good to excellent: feeding damage (40% or less feeding damage and/or 100% mortality) ([2]; sprayed at 50 ppm) [%] | control efficacy, very good to excellent: mortality ([3]; sprayed at 250 ppm) [%] | control efficacy, very good to excellent: feeding damage (40% or less feeding damage and/or 100% mortality) ([2]; sprayed at 250 ppm) [%] | control efficacy, very good to excellent: feeding damage (40% or less feeding damage and/or 100% mortality) ([1]; sprayed at 250 ppm) [%] | control efficacy, very good to excellent: mortality ([3]; sprayed at 50 ppm) [%]
N#CC1CCN(Cc2cn(-c3cncc(C(F)(F)F)c3)nc2-c2ccccc2F)CC1 [Compound 129] | ≤ 40 | ≤ 40 | ≥ 80 |  |  | 
CC(C)(C)C(=O)N[C@H]1CCN(Cc2cn(-c3ccc(Cl)c(Cl)c3)nc2-c2ccccc2F)C1 [Compound 781] | ≤ 40 | ≤ 40 | ≥ 80 | ≤ 40 |  | 
CCOC(=O)N1CCN(Cc2cn(-c3ccc(F)c(Cl)c3)nc2-c2ccccc2F)CC1 [Compound 209] | ≤ 40 | ≤ 40 | ≥ 80 |  | ≤ 40 | 
Fc1ccc(-n2cc(CN3CCC(c4nnco4)CC3)c(-c3ccccc3F)n2)cc1Cl [Compound 800] | ≤ 40 | ≤ 40 | ≥ 80 |  |  | ≥ 80
N#CC1CCN(Cc2cn(-c3ccc(F)c(F)c3)nc2-c2ccccc2Br)CC1 [Compound 534] | ≤ 40 | ≤ 40 | ≥ 80 |  |  | 
Fc1ccccc1-c1nn(-c2ccc(Br)cc2)cc1CN1CCC(c2nnco2)CC1 [Compound 768] | ≤ 40 | ≤ 40 | ≥ 80 | ≤ 40 |  | 
Fc1ccccc1-c1nn(-c2ccc(OC(F)(F)F)cc2)cc1CN1CCC(c2nnco2)CC1 [Compound 801] | ≤ 40 | ≤ 40 | ≥ 80 |  |  | 
N#CC1CCN(Cc2cn(-c3ccc(Br)cc3)nc2-c2c(F)cc(F)cc2F)CC1 [Compound 770] | ≤ 40 | ≤ 40 | ≥ 80 | ≤ 40 |  | 
Fc1ccccc1-c1nn(-c2ccc(Cl)c(Cl)c2)cc1CN1CCC(c2ccno2)CC1 [Compound 862] | ≤ 40 | ≤ 40 | ≥ 80 |  |  | 
Cc1ccccc1-c1nn(-c2ccc(Cl)c(Cl)c2)cc1CN1CCOCC1 [Compound 527] | ≤ 40 | ≤ 40 | ≥ 80 |  |  | 
COC(=O)C1CCN(Cc2cn(-c3ccc(Br)cc3)nc2-c2c(F)cc(F)cc2F)CC1 [Compound 774] | ≤ 40 |  | ≥ 80 | ≤ 40 |  | 
CC(=O)N[C@H]1CCN(Cc2cn(-c3ccc(Cl)c(Cl)c3)nc2-c2ccsc2)C1 [Compound 821] | ≤ 40 | ≤ 40 | ≥ 80 |  |  | 
CC(=O)NC1CCN(Cc2cn(-c3cccc(C(F)(F)F)c3)nc2-c2ccc(F)cc2)C1 (stereo not shown) [Compound 408] | ≤ 40 | ≤ 40 | ≥ 80 |  |  | 
Fc1cccc(F)c1-c1nn(-c2ccc(OC(F)(F)F)cc2)cc1CN1CCC(c2nnco2)CC1 [Compound 803] | ≤ 40 | ≤ 40 | ≥ 80 |  |  | 
Fc1ccc(-n2cc(CN3CCOCC3)c(-c3ccccc3Cl)n2)cc1F [Compound 532] | ≤ 40 | ≤ 40 | ≥ 80 |  |  | 
Cc1ccc(-n2cc(CN3CCOCC3)c(-c3ccccc3F)n2)cc1C [Compound 216] | ≤ 40 | ≤ 40 | ≥ 80 |  |  | 

Structure (SMILES) | control efficacy, very good to excellent: feeding damage (40% or less feeding damage and/or 100% mortality) ([1]; sprayed at 50 ppm) [%] | control efficacy, very good to excellent: feeding damage (40% or less feeding damage and/or 100% mortality) ([2]; sprayed at 50 ppm) [%] | control efficacy, very good to excellent: mortality ([3]; sprayed at 250 ppm) [%] | control efficacy, very good to excellent: feeding damage (40% or less feeding damage and/or 100% mortality) ([2]; sprayed at 250 ppm) [%] | control efficacy, very good to excellent: feeding damage (40% or less feeding damage and/or 100% mortality) ([1]; sprayed at 250 ppm) [%] | control efficacy, very good to excellent: mortality ([3]; sprayed at 50 ppm) [%]
CC(=O)N1CCN(Cc2cn(-c3ccc(Cl)c(Cl)c3)nc2-c2ccccc2F)CC1 [Compound 220] | ≤ 40 | ≤ 40 | ≥ 80 |  |  | 
O=C(N[C@H]1CCN(Cc2cn(-c3ccc(F)c(Cl)c3)nc2-c2ccc(F)cc2)C1)C1CC1 [Compound 871] | ≤ 40 | ≤ 40 | ≥ 80 |  |  | 
N#CC1CCN(Cc2cn(-c3cc(F)cc(F)c3)nc2-c2c(F)cc(F)cc2F)CC1 [Compound 824] | ≤ 40 | ≤ 40 | ≥ 80 |  |  | 
Fc1ccccc1-c1nn(-c2ccc(Cl)cn2)cc1CN1CCC(c2ncon2)CC1 [Compound 829] | ≤ 40 | ≤ 40 | ≥ 80 |  |  | 
Fc1ccccc1-c1nn(-c2cccc(C(F)(F)F)c2)cc1CN1CCC(c2nnco2)CC1 [Compound 805] | ≤ 40 | ≤ 40 | ≥ 80 |  |  | 
N#CC1CCN(Cc2cn(-c3ccc(F)c(Cl)c3)nc2-c2c(F)cccc2F)CC1 [Compound 581] | ≤ 40 | ≤ 40 | ≥ 80 |  |  | 
O=C(N[C@H]1CCN(Cc2cn(-c3ccc(Cl)c(Cl)c3)nc2-c2ccccc2F)C1)C(F)(F)F [Compound 783] | ≤ 40 | ≤ 40 | ≥ 80 |  |  | 
N#CC1CCN(Cc2cn(-c3ccc(Cl)c(Cl)c3)nc2-c2ccc(F)cc2)CC1 [Compound 33] | ≤ 40 | ≤ 40 | ≥ 80 |  | ≤ 40 | 
N#CC1CCN(Cc2cn(-c3cccc(C(F)(F)F)c3)nc2-c2ccccc2F)CC1 [Compound 71] | ≤ 40 | ≤ 40 | ≥ 80 |  | ≤ 40 | 
N#CC1CCN(Cc2cn(-c3ccc(F)c(F)c3)nc2-c2ccccc2Cl)CC1 [Compound 530] | ≤ 40 | ≤ 40 | ≥ 80 |  |  | 
Clc1ccc(-n2cc(CN3CCOCC3)c(-c3ccccc3Cl)n2)cc1Cl [Compound 526] | ≤ 40 | ≤ 40 | ≥ 80 |  |  | 
O=C(N[C@H]1CCN(Cc2cn(-c3ccc(Cl)c(Cl)c3)nc2-c2ccc(F)cc2)C1)C1CC1(Cl)Cl (stereo partly shown) [Compound 902] | ≤ 40 | ≤ 40 | ≥ 80 |  |  | 
O=C(N[C@H]1CCN(Cc2cn(-c3ccc(Cl)c(Cl)c3)nc2-c2ccc(F)cc2)C1)C(F)(F)F [Compound 874] | ≤ 40 | ≤ 40 | ≥ 80 |  |  | 
Fc1ccc(-n2cc(CN3CCOCC3)c(-c3ccccc3F)n2)cc1Cl [Compound 555] | ≤ 40 | ≤ 40 | ≥ 80 |  |  | 
O=C(N[C@H]1CCN(Cc2cn(-c3cccc(C(F)(F)F)c3)nc2-c2ccccc2F)C1)C1CC1 [Compound 845] | ≤ 40 | ≤ 40 | ≥ 80 |  |  | 
